This note sets out measurements from paper PMC7819943, “Rice protein-binding microarrays: a tool to detect cis-acting elements near promoter regions in rice”.

This is one part of the list.

This assay deals with T1, OsSMF1 (Oryza sativa, UniProt Q6ZLB0 1-436).
T1 sequence: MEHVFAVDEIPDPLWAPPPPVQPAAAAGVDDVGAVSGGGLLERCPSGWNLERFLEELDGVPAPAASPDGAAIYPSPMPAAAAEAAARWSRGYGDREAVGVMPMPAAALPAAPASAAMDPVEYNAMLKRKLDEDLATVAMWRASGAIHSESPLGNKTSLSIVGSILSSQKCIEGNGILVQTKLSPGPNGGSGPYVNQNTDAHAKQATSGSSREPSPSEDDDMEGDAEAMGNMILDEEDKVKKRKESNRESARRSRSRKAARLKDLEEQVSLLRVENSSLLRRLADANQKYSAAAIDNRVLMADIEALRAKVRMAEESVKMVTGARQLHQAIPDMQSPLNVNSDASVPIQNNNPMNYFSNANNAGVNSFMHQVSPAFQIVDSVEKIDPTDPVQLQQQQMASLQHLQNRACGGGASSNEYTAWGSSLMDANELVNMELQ
As to the kind of experiment: protein-binding microarray (RPBM); PBS, 2% BSA, 51.3 ng/ul salmon testes DNA, 50 uM zinc acetate, 200 nM TF, 25 C, 1 h; high values mean tight binding. The note with it: protein: recombinant; tags: N-terminal polyhistidine and DsRed monomer fusion (pET32a); chain copies: 2; label: CyDye5-dUTP incorporated in the synthesized complementary strand; 3' TTTTT single-stranded linker to array surface; dsDNA, one strand shown. In outline: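 The binding signal for each feature is its fluorescence intensity in arbitrary units. An Axon 4000B scanner was used to read a custom Agilent array that had been made double-stranded with Cy5-dUTP primer extension, blocked with 2% BSA, incubated at 25 °C for 1 h with 200 nM protein in PBS, 2% BSA, salmon testes DNA and 50 µM zinc acetate, and washed. The protein was an N-terminal polyhistidine–DsRed transcription factor fusion from E. coli BL21-CodonPlus, purified on Ni–NTA.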
As for “CGTCCCGCACTCCGTCAACACCTCGTCGGCGCTCAACTTCCGGAGTCACCTAGTGCAG”, the binding signal is 4590 fluorescence intensity (a.u.).

Take “CAGCTGTGATGTTTAACAATATGCTATCTGGCACATGCACCGGAGTCACCTAGTGCAG”: the binding signal was 32100 fluorescence intensity (a.u.).

Turning to “TGATACGATGACGTTTGGGTGGTTGGATATATATCATGATCGGAGTCACCTAGTGCAG”, the binding signal is 5350 fluorescence intensity (a.u.).

For the sequence “ATAAAAGAGAAGAGCAGCAGGCCAGCTGCAGGACGGACTTCGGAGTCACCTAGTGCAG”, the binding signal was 3820 fluorescence intensity (a.u.).

“CCCGGAACGAGATCGTCTGACGTTTCTTCCCCATCTCTCGCGGAGTCACCTAGTGCAG”: the binding signal was 4480 fluorescence intensity (a.u.).

Consider “AAAGAAATATTCGTTGTCATCTGAATCATGCAGATCGATCCGGAGTCACCTAGTGCAG”, for which the binding signal is 4080 fluorescence intensity (a.u.).

For the sequence “TTTCTTACTACCCAGTGCTAAAAGAGTATTACACGTTAGGCGGAGTCACCTAGTGCAG”, the binding signal was 3140 fluorescence intensity (a.u.).

On to “CACCACGACGAACCCCAACGCGAGCGAGCGGGAGGTGGCGCGGAGTCACCTAGTGCAG”, for which the binding signal was 15400 fluorescence intensity (a.u.).

For “AGTATCACAATATGAGTACATTAGCTTATGCACCTCCCATCGGAGTCACCTAGTGCAG”, the binding signal was 27400 fluorescence intensity (a.u.).

On to “CGTGACCTTGTTTGTATATCCACATACGCGAGTTCACATCCGGAGTCACCTAGTGCAG”, for which the binding signal was 3340 fluorescence intensity (a.u.).

As for “CAAGCTCATCAACTTCGTTCGGTCCAAGGTGCGTCAGGGTCGGAGTCACCTAGTGCAG”, the binding signal was 3180 fluorescence intensity (a.u.).

In the case of “CTAAATGATCTCTTTATTAATCCCTTGTACACCTGTAACCCGGAGTCACCTAGTGCAG”, the binding signal was 19800 fluorescence intensity (a.u.).

Turning to “GTGCCATCTAAGCGTCACGTCAAACACCACATACCAGGTCCGGAGTCACCTAGTGCAG”, the binding signal is 3140 fluorescence intensity (a.u.).

With “ATCATCAAGATTGATCCAAGAAGGAGCGAGAGCTTAGCTTCGGAGTCACCTAGTGCAG”, the binding signal is 32200 fluorescence intensity (a.u.).

As to “AGAATGCTTAGTCATTTGGGTCGAGGAGGGTAAGTCCTCCCGGAGTCACCTAGTGCAG”, the binding signal was 6050 fluorescence intensity (a.u.).

For the sequence “TCCATGGCGGCTGGCTATACCTTTCTGCACTACATTTGCACGGAGTCACCTAGTGCAG”, the binding signal is 34100 fluorescence intensity (a.u.).

For the sequence “GATGTTTCGGATGACAAGTTCCTGTCATCGCATCTGATTTCGGAGTCACCTAGTGCAG”, the binding signal was 3520 fluorescence intensity (a.u.).

“TCAAGATCATGAAAACCTTAACTTCCCTATATTTCACTTACGGAGTCACCTAGTGCAG”: the binding signal was 24600 fluorescence intensity (a.u.).

As for “CATCCTCGCCGTCATTTTGCGCCGCCTCTTGGACACCCGCCGGAGTCACCTAGTGCAG”, the binding signal was 3460 fluorescence intensity (a.u.).

On to “CAAACAAACCGCTCGTGTGCACAATACTACCAAATCAACGCGGAGTCACCTAGTGCAG”, for which the binding signal was 3370 fluorescence intensity (a.u.).

As to “CTCCTCCTCCGGCCACGTCGACGTCGCACCAACCGCCGCCCGGAGTCACCTAGTGCAG”, the binding signal was 14700 fluorescence intensity (a.u.).

In the case of “CGCTGGGACTTCTCTGCTATCTTTTCCTGTGTCTACATTTCGGAGTCACCTAGTGCAG”, the binding signal was 32800 fluorescence intensity (a.u.).

Consider “CTCCTTGACAACCAGCACCGATCCCTGAGTCACCCAACGACGGAGTCACCTAGTGCAG”, for which the binding signal is 6120 fluorescence intensity (a.u.).

“CGTACGCGTGGTGTGGATAAGCCGCTTGTGGCCGCCTCACCGGAGTCACCTAGTGCAG”: the binding signal is 3520 fluorescence intensity (a.u.).

On to “GTCGCGTGACTCGCATCACCCCTCACCACAACGATGCGAGCGGAGTCACCTAGTGCAG”, for which the binding signal is 3170 fluorescence intensity (a.u.).

For the sequence “TAGTTTAAACTTAAAAGGGTGCTAAGTCATTGGTGTTGCCCGGAGTCACCTAGTGCAG”, the binding signal is 3320 fluorescence intensity (a.u.).

In the case of “TTCTCTGTAGAAGAAGAGAGTTGATTCAATTTATAAGGAACGGAGTCACCTAGTGCAG”, the binding signal was 37900 fluorescence intensity (a.u.).

“AGAAAGTAACAATCCCGCTATTATTACGTCATATTTCCGCCGGAGTCACCTAGTGCAG”: the binding signal is 7860 fluorescence intensity (a.u.).

For “ATACGTGTGCCACGTTGGCCAAAACCGCTTTAGATTAGGTCGGAGTCACCTAGTGCAG”, the binding signal is 10900 fluorescence intensity (a.u.).

Turning to “GGCCGATGAAGCCCCACCAGTCGTGGTCGGCGACGTGGCGCGGAGTCACCTAGTGCAG”, the binding signal is 7250 fluorescence intensity (a.u.).

“GTGGGTAGTGACATGTCATCATGTATAGAATGGATAGCTACGGAGTCACCTAGTGCAG”: the binding signal was 6480 fluorescence intensity (a.u.).

As to “CGTCTCGCCTCCTGCCTCCCCGTGCCGCCGCACCACCGCGCGGAGTCACCTAGTGCAG”, the binding signal is 4000 fluorescence intensity (a.u.).

Regarding “AAGGCCAGCACACACATCACACTACCACTGATGATAGTGTCGGAGTCACCTAGTGCAG”, the binding signal is 5020 fluorescence intensity (a.u.).

Consider “GATTCCCGCCATCTCTATCCTCCTACTCGTCGCTGTCATCCGGAGTCACCTAGTGCAG”, for which the binding signal is 3360 fluorescence intensity (a.u.).

Consider “CCCTGCTCTGCCACGCCCGCCACCGTCTGCCGGCCTCTACCGGAGTCACCTAGTGCAG”, for which the binding signal is 4730 fluorescence intensity (a.u.).

In the case of “CGTCCGATCACACGTGAGCGTCCCAGATCTTACGTCGTTTCGGAGTCACCTAGTGCAG”, the binding signal is 4330 fluorescence intensity (a.u.).

On to “TTTGGACAAAATGTAGCTCTAATGCTGAGTAGATATCGTCCGGAGTCACCTAGTGCAG”, for which the binding signal was 4030 fluorescence intensity (a.u.).

Regarding “TACGTACATACCACCCTGCGCTTGTCATCAAACAACGGTCCGGAGTCACCTAGTGCAG”, the binding signal is 4720 fluorescence intensity (a.u.).

Turning to “TCTCGAAGGCATCCAGCTCACGGCATCTCACGCTGTCTTCCGGAGTCACCTAGTGCAG”, the binding signal was 5400 fluorescence intensity (a.u.).

As to “GTTTACACCTGTTGTACCAGTGCCCAGTGAACTGGCCGTTCGGAGTCACCTAGTGCAG”, the binding signal was 3170 fluorescence intensity (a.u.).

Consider “TCGGTTAGGTCTTATATTGCCCACCCCTACGTACACAATGCGGAGTCACCTAGTGCAG”, for which the binding signal was 3210 fluorescence intensity (a.u.).

Consider “AGCTCGTGTAGTTCTGAAATGATCAGATCACCATATGACACGGAGTCACCTAGTGCAG”, for which the binding signal is 3450 fluorescence intensity (a.u.).
